Residue numbers refer to the chain shown, from its start. No constants are given. Whether binding was seen depends on the method and setting. Binding seen in cells or lysates may run through a third protein. These calls come from enrichment with a bait or labelling near it, and not all partners need be listed. Sequences can lack the tags named with a protein.
Experiments:
[1] = target: T1, FLAG-tagged GMCL1 E142K (human) (UniProt Q96IK5); assay: affinity purification with mass spectrometry; FLAG-GMCL1 WT, EK or BBO transfected into HEK293T for 24 hr; FLAG-M2 beads, elution with 3xFLAG peptide, MS/MS; SAINT scores >0.70 and FDR <5%, WT or EK against BBO
T1 sequence: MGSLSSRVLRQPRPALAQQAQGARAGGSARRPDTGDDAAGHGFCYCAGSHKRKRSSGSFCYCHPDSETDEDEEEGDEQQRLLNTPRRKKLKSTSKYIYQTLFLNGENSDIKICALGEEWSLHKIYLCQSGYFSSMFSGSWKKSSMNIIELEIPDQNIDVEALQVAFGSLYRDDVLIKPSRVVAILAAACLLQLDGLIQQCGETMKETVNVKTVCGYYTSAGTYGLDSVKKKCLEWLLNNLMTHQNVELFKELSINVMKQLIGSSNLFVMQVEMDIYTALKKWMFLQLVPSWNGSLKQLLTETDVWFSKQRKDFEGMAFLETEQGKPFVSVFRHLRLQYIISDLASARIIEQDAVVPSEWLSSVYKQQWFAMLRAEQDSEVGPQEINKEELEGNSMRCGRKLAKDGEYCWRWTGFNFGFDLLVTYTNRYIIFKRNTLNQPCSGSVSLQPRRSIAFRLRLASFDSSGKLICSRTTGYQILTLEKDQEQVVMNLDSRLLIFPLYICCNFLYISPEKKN

Chains of the proteins cited; added tags and fusions are not shown.
UniProt Q12888: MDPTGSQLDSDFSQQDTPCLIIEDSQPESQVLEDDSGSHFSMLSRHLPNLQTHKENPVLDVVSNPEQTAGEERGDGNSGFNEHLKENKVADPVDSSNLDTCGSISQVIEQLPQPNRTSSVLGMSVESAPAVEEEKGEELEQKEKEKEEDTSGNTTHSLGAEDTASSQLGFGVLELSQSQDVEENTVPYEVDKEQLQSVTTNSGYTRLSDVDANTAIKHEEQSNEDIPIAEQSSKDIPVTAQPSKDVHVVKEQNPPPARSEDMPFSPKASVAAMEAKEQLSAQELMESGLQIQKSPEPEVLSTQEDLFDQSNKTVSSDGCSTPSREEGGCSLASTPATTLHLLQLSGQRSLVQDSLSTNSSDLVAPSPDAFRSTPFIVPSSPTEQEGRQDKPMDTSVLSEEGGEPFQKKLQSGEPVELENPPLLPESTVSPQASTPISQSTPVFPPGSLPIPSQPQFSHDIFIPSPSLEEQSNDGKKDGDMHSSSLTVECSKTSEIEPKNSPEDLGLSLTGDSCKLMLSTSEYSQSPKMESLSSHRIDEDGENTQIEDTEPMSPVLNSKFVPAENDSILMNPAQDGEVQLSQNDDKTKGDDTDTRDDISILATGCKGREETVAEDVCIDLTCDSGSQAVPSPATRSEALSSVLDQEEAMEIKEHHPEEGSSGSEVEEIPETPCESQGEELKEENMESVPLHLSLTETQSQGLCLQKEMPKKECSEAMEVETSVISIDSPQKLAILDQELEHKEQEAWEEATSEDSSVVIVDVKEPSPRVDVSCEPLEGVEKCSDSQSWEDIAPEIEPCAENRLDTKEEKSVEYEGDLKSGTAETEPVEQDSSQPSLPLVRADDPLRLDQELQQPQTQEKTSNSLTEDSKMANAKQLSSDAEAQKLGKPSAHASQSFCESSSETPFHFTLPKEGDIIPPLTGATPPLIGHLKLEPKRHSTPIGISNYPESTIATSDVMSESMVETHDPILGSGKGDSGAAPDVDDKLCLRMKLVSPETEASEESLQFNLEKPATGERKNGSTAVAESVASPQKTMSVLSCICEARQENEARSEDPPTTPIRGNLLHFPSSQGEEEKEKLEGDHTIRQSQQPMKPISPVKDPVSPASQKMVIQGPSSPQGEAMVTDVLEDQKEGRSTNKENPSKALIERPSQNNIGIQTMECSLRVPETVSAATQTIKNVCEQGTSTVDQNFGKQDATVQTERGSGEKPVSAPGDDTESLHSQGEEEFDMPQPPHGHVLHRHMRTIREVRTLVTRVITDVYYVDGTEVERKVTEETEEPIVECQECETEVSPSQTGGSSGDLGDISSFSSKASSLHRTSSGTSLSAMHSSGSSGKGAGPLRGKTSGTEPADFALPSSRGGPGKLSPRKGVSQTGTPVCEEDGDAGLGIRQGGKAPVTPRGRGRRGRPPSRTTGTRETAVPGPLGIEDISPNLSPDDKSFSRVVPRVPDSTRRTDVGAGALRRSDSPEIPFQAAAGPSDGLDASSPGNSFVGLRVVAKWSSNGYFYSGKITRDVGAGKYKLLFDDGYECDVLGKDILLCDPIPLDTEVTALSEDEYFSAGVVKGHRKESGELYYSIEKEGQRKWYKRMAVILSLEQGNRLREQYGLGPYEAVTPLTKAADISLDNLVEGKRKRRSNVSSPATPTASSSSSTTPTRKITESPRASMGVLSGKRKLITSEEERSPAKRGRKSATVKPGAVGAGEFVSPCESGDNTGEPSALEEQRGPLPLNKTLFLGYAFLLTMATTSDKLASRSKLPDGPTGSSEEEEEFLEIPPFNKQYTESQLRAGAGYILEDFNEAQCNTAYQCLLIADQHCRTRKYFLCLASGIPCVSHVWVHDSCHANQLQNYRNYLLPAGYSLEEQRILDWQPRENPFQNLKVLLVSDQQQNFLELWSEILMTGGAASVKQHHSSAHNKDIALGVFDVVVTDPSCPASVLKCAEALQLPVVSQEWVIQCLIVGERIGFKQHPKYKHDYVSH

[2] = target: T2, FLAG-tagged wild-type GMCL1 (germ cell-less protein-like 1) (human) (UniProt Q96IK5); assay: as above
T2 sequence: T1 sequence with K142E

- binding [1]: binds
- binding [2]: binds
Substance: 53BP1 (p53-binding protein 1), endogenous in HEK293T (from UniProt Q12888 1-1972)
